Results are given in words; binding and its absence hold for the method and conditions named. Some binding calls cover weakened binding; strength is not graded here.
B1: peptide number 40 (peptide, not shown: large carriers)
chain: GSGCVRIRVGIVRRMLFLRFVFLVP
notes: that construct is not described for linear peptides

Experiments:
Livin-β = molecular target: T1, Livin-β (UniProt Q96CA5-2 1-280, limits assumed); assay: yeast two-hybrid
T1 construct: the beta isoform is meant; also called Livin (beta)
T1 sequence (looked up): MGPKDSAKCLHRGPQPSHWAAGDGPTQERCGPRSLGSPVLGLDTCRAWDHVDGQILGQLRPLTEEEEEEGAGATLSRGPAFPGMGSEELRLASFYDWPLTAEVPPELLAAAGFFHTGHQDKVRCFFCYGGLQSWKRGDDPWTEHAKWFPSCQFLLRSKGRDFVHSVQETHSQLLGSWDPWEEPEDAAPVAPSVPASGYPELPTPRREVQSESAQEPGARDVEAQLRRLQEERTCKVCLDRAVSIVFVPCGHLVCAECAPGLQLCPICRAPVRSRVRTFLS

livin = livin (UniProt P04386); assay: yeast two-hybrid, peptide in trxA scaffold

Binder | binding (Livin-β) | binding (livin)
B1 | binds | 
ALLMFGCPNWFASWRLHLFI (peptide, not shown: large carriers) [SEQ ID NO 38] |  | binds
YKWRMGVYLSGVRLMRAFII (peptide, not shown: large carriers) [SEQ ID NO 4] |  | binds
VSYRTCTAGGQMSRWRLFII (peptide, not shown: large carriers) [SEQ ID NO 5] |  | binds
WLGTFSGTCSTAFYFPLGVP (peptide, not shown: large carriers) [SEQ ID NO 7] |  | binds
TNFRPSPTFHAILLWPNTFS (peptide, not shown: large carriers) [SEQ ID NO 8] |  | binds

Reference: US20050203288A1 (DEUTSCHES KREBSFORSCHUNGSZENTRUM STIFUNG DES OFFENTLICHEN …, published 2005)
